Eight molecules from publication doi:10.1101/2021.09.16.460581 can be followed below.

These are yes or no findings as the source states them, for the method shown. Binding seen in cells or lysates may run through a third protein. A yes stands for co-enrichment or nearness to the bait. Other partners may have been found. Sequences can lack the tags named with a protein.

T1: Mrc1-YFP (S. cerevisiae) (UniProt P25588)
T1 sequence: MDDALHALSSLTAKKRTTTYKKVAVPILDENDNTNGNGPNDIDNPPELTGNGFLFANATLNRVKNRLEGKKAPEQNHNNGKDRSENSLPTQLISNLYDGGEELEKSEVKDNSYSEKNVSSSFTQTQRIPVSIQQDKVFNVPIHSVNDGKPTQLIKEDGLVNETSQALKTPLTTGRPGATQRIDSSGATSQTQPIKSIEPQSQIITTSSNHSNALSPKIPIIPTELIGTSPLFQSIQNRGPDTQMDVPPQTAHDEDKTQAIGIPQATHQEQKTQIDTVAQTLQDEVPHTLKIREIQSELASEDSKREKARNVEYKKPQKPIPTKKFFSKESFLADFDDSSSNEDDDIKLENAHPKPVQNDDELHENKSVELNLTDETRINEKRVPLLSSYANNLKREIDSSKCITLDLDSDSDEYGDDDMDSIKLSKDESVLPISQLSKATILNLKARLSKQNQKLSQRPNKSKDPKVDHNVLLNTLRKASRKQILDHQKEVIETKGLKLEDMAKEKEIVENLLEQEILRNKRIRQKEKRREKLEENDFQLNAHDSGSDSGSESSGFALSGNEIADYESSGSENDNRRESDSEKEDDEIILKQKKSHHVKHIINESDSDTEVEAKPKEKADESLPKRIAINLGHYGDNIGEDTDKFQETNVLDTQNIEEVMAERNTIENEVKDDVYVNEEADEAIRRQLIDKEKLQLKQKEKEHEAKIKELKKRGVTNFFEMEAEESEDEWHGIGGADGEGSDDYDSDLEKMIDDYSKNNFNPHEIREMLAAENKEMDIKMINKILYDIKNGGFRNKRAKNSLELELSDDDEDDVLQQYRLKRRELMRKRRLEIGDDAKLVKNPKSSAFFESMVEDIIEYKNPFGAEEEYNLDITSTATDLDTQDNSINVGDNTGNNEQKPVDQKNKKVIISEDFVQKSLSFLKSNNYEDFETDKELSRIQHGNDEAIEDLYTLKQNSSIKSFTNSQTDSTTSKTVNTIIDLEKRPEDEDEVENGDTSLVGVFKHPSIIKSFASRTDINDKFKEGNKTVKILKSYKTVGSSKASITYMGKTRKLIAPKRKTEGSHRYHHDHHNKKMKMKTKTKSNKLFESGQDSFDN

B1: Cka2 (protein, UniProt P19454 1-339)
chain: MPLPPSTLNQKSNRVYSVARVYKNACEERPQEYWDYEQGVTIDWGKISNYEIINKIGRGKYSEVFSGRCIVNNQKCVIKVLKPVKMKKIYRELKILTNLTGGPNVVGLYDIVQDADSKIPALIFEEIKNVDFRTLYPTFKLPDIQYYFTQLLIALDYCHSMGIMHRDVKPQNVMIDPTERKLRLIDWGLAEFYHPGVDYNVRVASRYHKGPELLVNLNQYDYSLDLWSVGCMLAAIVFKKEPFFKGSSNPDQLVKIATVLGTKELLGYLGKYGLHLPSEYDNIMRDFTKKSWTHFITSETKLAVPEVVDLIDNLLRYDHQERLTAKEAMDHKFFKTKFE
B2: Rrm3 (protein, UniProt P38766 1-723)
chain: MFRSHASGNKKQWSKRSSNGSTPAASASGSHAYRQQTLSSFFMGCGKKSAAASKNSTTIIDLESGDEGNRNITAPPRPRLIRNNSSSLFSQSQGSFGDDDPDAEFKKLVDVPRLNSYKKSSRSLSMTSSLHKTASASTTQKTYHFDEDETLREVTSVKSNSRQLSFTSTINIEDSSMKLSTDSERPAKRSKPSMEFQGLKLTVPKKIKPLLRKTVSNMDSMNHRSASSPVVLTMEQERVVNLIVKKRTNVFYTGSAGTGKSVILQTIIRQLSSLYGKESIAITASTGLAAVTIGGSTLHKWSGIGIGNKTIDQLVKKIQSQKDLLAAWRYTKVLIIDEISMVDGNLLDKLEQIARRIRKNDDPFGGIQLVLTGDFFQLPPVAKKDEHNVVKFCFESEMWKRCIQKTILLTKVFRQQDNKLIDILNAIRYGELTVDIAKTIRNLNRDIDYADGIAPTELYATRREVELSNVKKLQSLPGDLYEFKAVDNAPERYQAILDSSLMVEKVVALKEDAQVMMLKNKPDVELVNGSLGKVLFFVTESLVVKMKEIYKIVDDEVVMDMRLVSRVIGNPLLKESKEFRQDLNARPLARLERLKILINYAVKISPHKEKFPYVRWTVGKNKYIHELMVPERFPIDIPRENVGLERTQIPLMLCWALSIHKAQGQTIQRLKVDLRRIFEAGQVYVALSRAVTMDTLQVLNFDPGKIRTNERVKDFYKRLETLK
B3: Cdc53 (protein, UniProt Q12018 1-815)
chain: MSETLPRSDDLEATWNFIEPGINQILGNEKNQASTSKRVYKILSPTMYMEVYTAIYNYCVNKSRSSGHFSTDSRTGQSTILVGSEIYEKLKNYLKNYILNFKQSNSETFLQFYVKRWKRFTIGAIFLNHAFDYMNRYWVQKERSDGKRHIFDVNTLCLMTWKEVMFDPSKDVLINELLDQVTLGREGQIIQRSNISTAIKSLVALGIDPQDLKKLNLNVYIQVFEKPFLKKTQEYYTQYTNDYLEKHSVTEYIFEAHEIIKREEKAMTIYWDDHTKKPLSMALNKVLITDHIEKLENEFVVLLDARDIEKITSLYALIRRDFTLIPRMASVFENYVKKTGENEISSLLAMHKHNIMKNENANPKKLALMTAHSLSPKDYIKKLLEVHDIFSKIFNESFPDDIPLAKALDNACGAFININEFALPAGSPKSATSKTSEMLAKYSDILLKKATKPEVASDMSDEDIITIFKYLTDKDAFETHYRRLFAKRLIHGTSTSAEDEENIIQRLQAANSMEYTGKITKMFQDIRLSKILEDDFAVALKNEPDYSKAKYPDLQPFVLAENMWPFSYQEVEFKLPKELVPSHEKLKESYSQKHNGRILKWLWPLCRGELKADIGKPGRMPFNFTVTLFQMAILLLYNDADVLTLENIQEGTSLTIQHIAAAMVPFIKFKLIQQVPPGLDALVKPETQFKLSRPYKALKTNINFASGVKNDILQSLSGGGHDNHGNKLGNKRLTEDERIEKELNTERQIFLEACIVRIMKAKRNLPHTTLVNECIAQSHQRFNAKVSMVKRAIDSLIQKGYLQRGDDGESYAYLA
B4: Ckb1 (protein, UniProt P43639 1-278)
chain: MSQEFVEDYSRTGSSDDEDSGAYDEWIPSFCSRFGHEYFCQVPTEFIEDDFNMTSLSQEVPHYRKALDLILDLEAMSDEEEDEDDVVEEDEVDQEMQSNDGHDEGKRRNKSPVVNKSIIEHAAEQLYGLIHARFILTKPGLQAMAEKFDHKEFGTCPRYYCNGMQLLPCGLSDTVGKHTVRLYCPSCQDLYLPQSSRFLCLEGAFWGTSFPGVFLKHFKELEEYVERKSKESYELKVFGFRINDEAVSGPRMKWLRQYPSTEEDWEEFAKCEFETPAV
B5: Dia2 (protein, UniProt Q08496 1-732)
chain: MSSPGNSGVAIDSTVLKAIELGTRLFKSGEYLQAKRIFTNALRVCDSYSQEQIMRIRNAYQLDTARPDNKRLYHPRYIKILDNICACYEKLNDLKSCLDVSQRLLKLEPGNIKCYIRCTRTLIKLKDWKRAYKTCSRGLQLCNNDSNHLRQQKQFIKNNMVQKQDGKRSYIDPLEETKIAKKKKNNNVLESLPKKKIKGSTKKTDLVGNLPIEILPIIFQRFTTKELVTLSLVCNKWRDKILYHLDCFQEFNLAPINFKNFVKFMDFLQQNFTRTYRKYILSQVKVSSRITSEELRITQLLFSKMPKCINIERLILSMPTLTTTQIFKLMVRGGTDFFTRLLELSLMITYRPDKQHELEILQTCPLLKKIELIFVNSLVPIFDGNNSVGRDGSFNVMARHTNMQISTADNDEQGIVEEKVIYSELEKITLICDKKKIKNFPLCRALLRGQFPLLQKLTITGVTFPMNNQDIMNFQWLLNFPDLKELWIEDNDNCELSKFLQLLKFSNVWKNLEKLTFRENKLYPIVNLDEDQPVTNDDEVPSMLFYKENLQNLEKLDLMGTSISGSALTRLCEQEYLDGRKLRSLNIGNCPNIQFPNNHAHTARMILDVNAVLKRLSKLEEINLSHLSSLNDSTMKSFIINVPFLENLKRLDISHNFEITGISIYEFLKKFQMDHDNEAGGQPLAYLNIDGCSQVSHITVNMIRAQNLVTQVDCVYERDVWRKFGINSYSYS
B6: Ckb2 (protein, UniProt P38930 1-258)
chain: MGSRSENVGTVTREGSRVEQDDVLMDDDSDSSEYVDMWIDLFLGRKGHEYFCDVDPEYITDRFNLMNLQKTVSKFSYVVQYIVDDLDDSILENMTHARLEQLESDSRKLYGLIHARYIITIKGLQKMYAKYKEADFGRCPRVYCNLQQLLPVGLHDIPGIDCVKLYCPSCEDLYIPKSSRHSSIDGAYFGTSFPGMFLQAFPDMVPKHPTKRYVPKIFGFELHKQAQLTRWQELQRLKLVEKLESKDVDLTKSGGFKT
B7: Rad5 (protein, UniProt P32849 1-1169)
chain: MSHIEQEERKRFFNDDLDTSETSLNFKSENKESFLFANSHNDDDDDVVVSVSDTTEGEGDRSIVPVRREIEEEGQNQFITELLRIIPEMPKDLVMELNEKFGSQEEGLSLALSHYFDHNSGTSISKIPSSPNQLNTLSDTSNSTLSPSSFHPKRRRIYGFRNQTRLEDKVTWKRFIGALQVTGMATRPTVRPLKYGSQMKLKRSSEEISATKVYDSRGRKKASMASLVRIFDIQYDREIGRVSEDIAQILYPLLSSHEISFEVTLIFCDNKRLSIGDSFILQLDCFLTSLIFEERNDGESLMKRRRTEGGNKREKDNGNFGRTLTETDEELESRSKRLALLKLFDKLRLKPILDEQKALEKHKIELNSDPEIIDLDNDEICSNQVTEVHNNLRDTQHEEETMNLNQLKTFYKAAQSSESLKSLPETEPSRDVFKLELRNYQKQGLTWMLRREQEFAKAASDGEASETGANMINPLWKQFKWPNDMSWAAQNLQQDHVNVEDGIFFYANLHSGEFSLAKPILKTMIKGGILSDEMGLGKTVAAYSLVLSCPHDSDVVDKKLFDIENTAVSDNLPSTWQDNKKPYASKTTLIVVPMSLLTQWSNEFTKANNSPDMYHEVYYGGNVSSLKTLLTKTKTPPTVVLTTYGIVQNEWTKHSKGRMTDEDVNISSGLFSVNFYRIIIDEGHNIRNRTTVTSKAVMALQGKCKWVLTGTPIINRLDDLYSLVKFLELDPWRQINYWKTFVSTPFESKNYKQAFDVVNAILEPVLLRRTKQMKDKDGKPLVELPPKEVVIKRLPFSKSQDLLYKFLLDKAEVSVKSGIARGDLLKKYSTILVHILRLRQVCCHPGLIGSQDENDEDLSKNNKLVTEQTVELDSLMRVVSERFDNSFSKEELDAMIQRLKVKYPDNKSFQSLECSICTTEPMDLDKALFTECGHSFCEKCLFEYIEFQNSKNLGLKCPNCRNQIDACRLLALVQTNSNSKNLEFKPYSPASKSSKITALLKELQLLQDSSAGEQVVIFSQFSTYLDILEKELTHTFSKDVAKIYKFDGRLSLKERTSVLADFAVKDYSRQKILLLSLKAGGVGLNLTCASHAYMMDPWWSPSMEDQAIDRLHRIGQTNSVKVMRFIIQDSIEEKMLRIQEKKRTIGEAMDTDEDERRKRRIEEIQMLFE
B8: Hrt1 (protein, UniProt Q08273 1-121)
chain: MSNEVDRMDVDEDESQNIAQSSNQSAPVETKKKRFEIKKWTAVAFWSWDIAVDNCAICRNHIMEPCIECQPKAMTDTDNECVAAWGVCNHAFHLHCINKWIKTRDACPLDNQPWQLARCGR

The assay concerns the target T1, Mrc1-YFP (S. cerevisiae). The assay can be described thus: affinity purification with mass spectrometry.
For the molecule B1, the binding result was “binds”.

For B2, the binding result is reported as “binds”.

Regarding B3, the binding result is on record as “binds”.

B4: the binding result is on record as “binds”.

B5: the binding result is reported as “binds”.

For B6, the binding entry is recorded as “binds”.

Take B7: the binding result is “binds”.

Regarding B8, the binding result is “binds”.
